Source: patent publication US20050129693A1
No constants are given. Whether binding was seen depends on the method and setting. Some binding calls cover weakened binding; strength is not graded here.

Amino acid sequences for entries named in this document (tags omitted). Residues count along the entry.
UniProt P01579, residues 24-166: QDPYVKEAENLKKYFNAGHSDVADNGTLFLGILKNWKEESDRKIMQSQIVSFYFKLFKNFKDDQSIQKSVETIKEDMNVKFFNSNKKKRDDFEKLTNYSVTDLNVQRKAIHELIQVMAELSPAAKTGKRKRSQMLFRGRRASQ

Columns and labels:
human IFNγ (human) [1] = molecular target: human IFNγ (human) (UniProt P01579); test: ELISA, hIFNγ coated, protein A purified antibody
human IFNγ (human) [2] = molecular target: human IFNγ (human) (UniProt P01579); test: SPR, B1 chip, IFNγ captured via immobilized murine D9D10, crude COS supernatant injected
human IFNγ (human) [3] = molecular target: human IFNγ (human) (UniProt P01579); test: ELISA, hIFNγ coated, crude COS supernatant
human IFNγ (human) [4] = molecular target: human IFNγ (human) (UniProt P01579); test: ELISA, recombinant human IFNγ coated, E. coli periplasmic fractions, detection with rabbit anti-D9D10 scFv serum
human IFNγ (human) [5] = molecular target: human IFNγ (human) (UniProt P01579); test: SPR, B1 chip coated with murine D9D10 onto which IFNγ was injected, undiluted periplasmic fraction
human IFNγ (human) [6] = molecular target: human IFNγ (human) (UniProt P01579); test: SPR, B1 chip coated with murine D9D10 onto which IFNγ was injected, periplasmic fraction
human IFNγ (human) [7] = molecular target: human IFNγ (human) (UniProt P01579); test: SPR (BIACORE), IFNγ captured via immobilized murine D9D10

B1: humanized D9D10 whole antibody (antibody, human IgG1, kappa, V domains shown)
VH: QVQLVQSGSELKKPGASVKISCKASGYTFTDYGMNWVKQAPGQGLKWMGWINTYTGESTYVDDFKGRFVFSLDTSVSAAYLQISSLKAEDTATYFCARRGFYAMDYWGQGTTVTVSS
VL: DIELTQSPATMSASPGERVTLTCSASSSISYMFWYHQRPGQSPRLLIYDTSNLASGVPARFSGSGSGTSYSLTISRMEPEDFATYFCHQSSSYPFTFGQGTKLEIKR
binding (human IFNγ (human) [1]): binds | binding (human IFNγ (human) [2]): binds | binding (human IFNγ (human) [3]): binds

B2: MoTAbI (protein)
chain: QVQLVQSGSELKKPGASVKISCKASGYTFTDYGMNWVKQAPGQGLKWMGWINTYTGESTYVDDFKGRFVFSLDTSVSAAYLQISSLKAEDTATYFCARRGFYAMDYWGQGTTVTVSSGGGGSGGGGSGGGGSDIVLTQSPATMSASPGERVTLTCSASSSISYMFWYHQRPGQSPRLLIYDTSNLASGVPARFSGSGSGTSYSLTISRMEPEDFATYFCHQSSSYPFTFGQGTKLEIKRTPLGDTTHTSGGELEELLKHLKELLKGPRKGELEELLKHLKELLKGTPLGDTTHTSGQVQLVQSGSELKKPGASVKISCKASGYTFTDYGMNWVKQAPGQGLKWMGWINTYTGESTYVDDFKGRFVFSLDTSVSAAYLQISSLKAEDTATYFCARRGFYAMDYWGQGTTVTVSSGGGGSGGGGSGGGGSDIVLTQSPATMSASPGERVTLTCSASSSISYMFWYHQRPGQSPRLLIYDTSNLASGVPARFSGSGSGTSYSLTISRMEPEDFATYFCHQSSSYPFTFGQGTKLEIKRHHHHHH
binding (human IFNγ (human) [4]): binds

B3: humanized L5 D9D10 diabody (protein)
chain: QVQLVQSGSELKKPGASVKISCKASGYTFTDYGMNWVKQAPGQGLKWMGWINTYTGESTYVDDFKGRFVFSLDTSVSAAYLQISSLKAEDTATYFCARRGFYAMDYWGQGTTVTVSSGGGGSDIVLTQSPATMSASPGERVTLTCSASSSISYMFWYHQRPGQSPRLLIYDTSNLASGVPARFSGSGSGTSYSLTISRMEPEDFATYFCHQSSSYPFTFGQGTKLEIKRHHHHHH
binding (human IFNγ (human) [5]): binds

B4: L10 D9D10 diabody (protein)
chain: QVQLVQSGSELKKPGASVKISCKASGYTFTDYGMNWVKQAPGQGLKWMGWINTYTGESTYVDDFKGRFVFSLDTSVSAAYLQISSLKAEDTATYFCARRGFYAMDYWGQGTTVTVSSGGGGSGGGGSDIVLTQSPATMSASPGERVTLTCSASSSISYMFWYHQRPGQSPRLLIYDTSNLASGVPARFSGSGSGTSYSLTISRMEPEDFATYFCHQSSSYPFTFGQGTKLEIKRHHHHHH
binding (human IFNγ (human) [5]): binds

B5: humanized L0 D9D10 triabody (protein)
chain: QVQLVQSGSELKKPGASVKISCKASGYTFTDYGMNWVKQAPGQGLKWMGWINTYTGESTYVDDFKGRFVFSLDTSVSAAYLQISSLKAEDTATYFCARRGFYAMDYWGQGTTVTVSSDIVLTQSPATMSASPGERVTLTCSASSSISYMFWYHQRPGQSPRLLIYDTSNLASGVPARFSGSGSGTSYSLTISRMEPEDFATYFCHQSSSYPFTFGQGTKLEIKRHHHHHH
binding (human IFNγ (human) [6]): binds

B6: humanized scFvD9D10 (scFv)
scFv: QVQLVQSGSELKKPGASVKISCKASGYTFTDYGMNWVKQAPGQGLKWMGWINTYTGESTYVDDFKGRFVFSLDTSVSAAYLQISSLKAEDTATYFCARRGFYAMDYWGQGTTVTVSSGGGGSGGGGSGGGGSDIVLTQSPATMSASPGERVTLTCSASSSISYMFWYHQRPGQSPRLLIYDTSNLASGVPARFSGSGSGTSYSLTISRMEPEDFATYFCHQSSSYPFTFGQGTKLEIKRHHHHHH
binding (human IFNγ (human) [7]): binds
